In PMC7864067 one finds binding data, which are given here for one substance.

Chains of the proteins cited; added tags and fusions are not shown. Lines headed by an entry give the natural chain unless they say otherwise; changes in a name come on top. A line that says so, or that is headed by a name, gives the form on record, which may keep a tag or linker.
profilin 2b (recombinant) (P35080-2, form named): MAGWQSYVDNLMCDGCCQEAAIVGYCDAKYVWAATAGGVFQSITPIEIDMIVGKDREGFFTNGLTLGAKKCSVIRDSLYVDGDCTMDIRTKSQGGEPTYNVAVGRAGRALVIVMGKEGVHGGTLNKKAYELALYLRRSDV

These are yes or no findings as the source states them, for the method shown.

The test addresses profilin 2b (recombinant) (UniProt P35080). The experiment in a line: SEC-MALS + other: SAXS; SEC-MALS on Superdex 75 Increase 10/300 GL in 20 mM HEPES pH 8.5, 100 mM NaCl, 2 mM EDTA, 200–300 μg injected; batch SAXS at 1.1 to 5.7 mg/ml, 10 °C, 20 mM HEPES pH 8.0, 100 mM NaCl, 1 mM DTT; both purified.

As for “profilin 2b (recombinant) (from UniProt P35080-2 1-140)”, the binding result is listed as “no binding”.
